Source: article PMC5709618
No constants are given. Whether binding was seen depends on the method and setting. In cells and extracts the contact can be indirect. Some binding calls cover weakened binding; strength is not graded here.

Protein sequences, listed by entry. Tags and fused reporters are not part of them.
UniProt Q13131: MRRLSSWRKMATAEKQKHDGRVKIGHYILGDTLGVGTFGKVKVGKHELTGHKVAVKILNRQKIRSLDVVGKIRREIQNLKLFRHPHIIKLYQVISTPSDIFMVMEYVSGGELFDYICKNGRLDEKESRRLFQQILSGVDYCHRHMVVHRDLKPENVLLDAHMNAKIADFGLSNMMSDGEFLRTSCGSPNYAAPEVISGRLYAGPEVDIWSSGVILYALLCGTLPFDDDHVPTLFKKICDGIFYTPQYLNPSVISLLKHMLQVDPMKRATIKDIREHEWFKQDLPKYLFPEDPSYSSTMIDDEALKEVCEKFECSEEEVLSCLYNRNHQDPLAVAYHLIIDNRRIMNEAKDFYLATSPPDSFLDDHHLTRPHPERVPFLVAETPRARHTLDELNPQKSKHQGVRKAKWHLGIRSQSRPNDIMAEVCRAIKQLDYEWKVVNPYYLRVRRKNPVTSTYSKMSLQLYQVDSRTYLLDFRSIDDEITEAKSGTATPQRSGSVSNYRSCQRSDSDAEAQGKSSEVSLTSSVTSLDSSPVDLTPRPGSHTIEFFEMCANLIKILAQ
UniProt Q7L0R7: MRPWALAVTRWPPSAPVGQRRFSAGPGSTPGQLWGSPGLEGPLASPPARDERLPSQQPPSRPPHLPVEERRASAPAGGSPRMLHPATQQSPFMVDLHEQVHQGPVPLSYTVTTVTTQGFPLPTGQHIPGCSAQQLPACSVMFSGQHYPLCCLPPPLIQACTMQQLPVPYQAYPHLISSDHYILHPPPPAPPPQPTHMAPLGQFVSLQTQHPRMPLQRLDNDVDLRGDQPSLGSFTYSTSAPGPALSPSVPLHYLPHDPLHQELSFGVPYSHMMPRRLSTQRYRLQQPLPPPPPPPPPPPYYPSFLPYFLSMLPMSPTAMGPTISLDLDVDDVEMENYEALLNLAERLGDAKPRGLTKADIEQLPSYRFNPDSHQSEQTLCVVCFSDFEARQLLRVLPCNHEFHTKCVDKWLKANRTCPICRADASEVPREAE
UniProt Q969Q1: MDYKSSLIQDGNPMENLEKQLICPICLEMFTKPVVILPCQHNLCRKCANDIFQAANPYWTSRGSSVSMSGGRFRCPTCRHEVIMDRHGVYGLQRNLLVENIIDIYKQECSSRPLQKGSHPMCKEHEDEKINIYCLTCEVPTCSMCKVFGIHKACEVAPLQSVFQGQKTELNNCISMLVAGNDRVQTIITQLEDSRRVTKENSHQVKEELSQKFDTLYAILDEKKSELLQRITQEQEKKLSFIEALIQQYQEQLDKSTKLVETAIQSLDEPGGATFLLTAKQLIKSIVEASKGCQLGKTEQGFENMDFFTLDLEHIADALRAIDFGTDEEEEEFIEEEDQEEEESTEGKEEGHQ

How the values were obtained:
[1] = molecular target: AMPK-α1 (human (endogenous in melanoma cell lines)) (UniProt Q13131); assay: co-IP; anti-AMPK-α1 antibody and Gammabind plus sepharose beads added to lysates of parental and BR cells incubated with or without ADI-PEG20 (100 ng/ml) in the presence of MG-132 (10 μM) for 4 hr; SDS-PAGE and immunoblotting
[2] = molecular target: AMPK-α1 (human (endogenous in melanoma cell lines)), Q13131; assay: as above; settings: remark: other sources report otherwise

With “RING finger 44 (RNF44) (from UniProt Q7L0R7 1-432)” the binding [1] was “binds”.

In the case of MuRF1 (from UniProt Q969Q1 1-353), the binding [1] is reported as “no binding”.

B1: Cidea (protein, UniProt O60543 1-219)
chain: MEAARDYAGALIRPLTFMGSQTKRVLFTPLMHPARPFRVSNHDRSSRRGVMASSLQELISKTLDALVIATGLVTLVLEEDGTVVDTEEFFQTLGDNTHFMILEKGQKWMPGSQHVPTCSPPKRSGIARVTFDLYRLNPKDFIGCLNVKATMYEMYSVSYDIRCTGLKGLLRSLLRFLSYSAQVTGQFLIYLGTYMLRVLDDKEERPSLRSQAKGRFTCG
For B1, the binding [1] was “no binding”.

B2: Melanoma-associated antigen 3 (MAGE-A3), P43357 1-314 (protein)
chain: MPLEQRSQHCKPEEGLEARGEALGLVGAQAPATEEQEAASSSSTLVEVTLGEVPAAESPDPPQSPQGASSLPTTMNYPLWSQSYEDSSNQEEEGPSTFPDLESEFQAALSRKVAELVHFLLLKYRAREPVTKAEMLGSVVGNWQYFFPVIFSKASSSLQLVFGIELMEVDPIGHLYIFATCLGLSYDGLLGDNQIMPKAGLLIIVLAIIAREGDCAPEEKIWEELSVLEVFEGREDSILGDPKKLLTQHFVQENYLEYRQVPGSDPACYEFLWGPRALVETSYVKVLHHMVKISGGPHISYPPLHEWVLREGEE
B2 was tested, and the binding [2] was “no binding”.
